Test results published in PubChem BioAssay AID1347423 (Functional Genomics Laboratory (NCATS/FGL), 2020).
In all, about 52,000 sequences went through this assay and about 210 (0.4%) were called active.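 How the source made its calls: active means gene whose silencing raises cell survival under the drug, median off-target-corrected z-score across its silencing RNAs 2 or more; inactive means the rest.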 This is one part of the list.

Experiment: Resistance to Poly (ADP-Ribose) Polymerase inhibitor: Gene Identification via Genome-wide siRNA Screen
Details: mouse BRCA2 R2336H ES cells, olaparib, CellTiter-Glo viability; stronger effect = higher value
Description: The role of Poly (ADP-Ribose) Polymerase (PARP) proteins in DNA repair has been elegantly utilized for the synthetic lethality-based treatment of BRCA-deficient tumors by PARP inhibitors. PARP inhibitors are now being used for treatment of BRCA-deficient breast and ovarian cancers. […] While several mechanisms of drug resistance have been identified, majority of these tumors develop drug resistance due to unknown causes. To identified novel regulators of chemo-resistance in BRCA2-mutated cells, we performed a genome wide siRNA library screen. We have found ES cells expressing a hypomorphic allele of BRCA2 to be hypersensitive to PAPP inhibitors (such as olaparib). We used ES cells expressing a mutant allele of BRCA2 that has a single amino acid substitution at position 2336 (arginine to histidine, R2336H). The screen was conducted using an Ambion (Thermo) Silencer Mouse Genome siRNA collection. The library targets 17,575 mouse genes with 3 siRNAs per gene. TET2 (E130014J05Rik) was identified as a top candidate.
Transfections were performed in 384 well plates (Corning 3707). Plates were coated with 0.1% gelatin in H2O overnight at ambient temperature. Gelatin solution was aspirated (BioTek EL406) and siRNAs were printed using a Bravo VPrep liquid handler integrated within a BioCel automation platform (Agilent). Cell viability was measured using CellTiter Glo (Promega). For transfections, […] of serum free media containing Lipofectamine RNAiMax […] was added to wells containing siRNA (0.8pmol). Lipid and siRNA were allowed to complex for 45 min at ambient temperature before addition of 1000 cells in DMEM, 30% FBS to yield final transfection mixtures containing 20 nM siRNA in DMEM, 15% FBS. PARPi (olaparib, AZD2281) was added 48 h post-transfection (500 nM) and viability (CellTiter Glo, Promega) was assayed 72 h later on a PerkinElmer Envision 2104 Multilabel plate reader. Ambion Silencer Select Negative Control #2 was incorporated on all screening plates (16 wells) and the median negative control value on each plate was used for normalization. An siRNA targeting Trp53 was used as a positive control. This control yielded a median protective effect of ~1.9 fold versus negative control throughout the screen. The median absolute deviation (MAD) based z-score was calculated for each siRNA. Genes were then ranked by taking the median value for all siRNAs tested against a given gene. Scores were also adjusted for seed-based off-target effects to help deprioritize likely false positives.
In the case of “GGAAGAAGUCCAACAGCACTT against C330039G02Rik”, the z-score is reported as inactive: 0.261. For CCGUGGUGCAAGCUUACAUTT against Atp2b4, the z-score was inactive: 0.291. For CGUCCUUUAUUAGAGAUGATT against Got1, the z-score was inactive: -0.637. For GGUUGGUUUGAAGAUCAAGTT against Pole2, the z-score was inactive: -1.69. In the case of GCCCUGGAAAGGAUGUUUGTT against Hba-a1, the z-score is reported as inactive: -0.962. For GGAACAUAGUAGCAUGCCATT against Leprel2, the z-score was inactive: -0.442. In the case of GGUCUUUACCAUACACAGCTT against Zfp352, the z-score is reported as inactive: -0.534. In the case of GGUUGUGGAAGAAGGACUCTT against Thrap2, the z-score is reported as inactive: 0.488. With GCCUUGAGAUGACGACAACTT against Thy28 the z-score was inactive: -0.946. In the case of GCUAUUUCUAGGCAGACUGTT against Ypel5, the z-score is reported as inactive: -1.11. With CGAUGGAGCUUUCAAAACUTT against Treml4 the z-score was inactive: 0.237. In the case of GGACCAGACUUUGAAGAAUTT against Homer3, the z-score is reported as inactive: -1.47. With GGGAGUUAACUUCAAGGAATT against Gpr120 the z-score was inactive: 0.65. With GGACCUGAGAUAUUUUCUGTT against Mfap5 the z-score was inactive: -0.196. For “GGACAGUGAUGAAGAAAAUTT against 3110031B13Rik”, the z-score was inactive: 0.593. For “GGGCCUCUCUCAGUGACAUTT against 9130217G22Rik”, the z-score was inactive: -0.726. With GCAAGCCAUGAGACACCUUTT against Olfr843 the z-score was inactive: -0.073. For “GGAGAACAAAGAUUUCGUGTT against B230384L07”, the z-score was inactive: -0.0293. For GGUGUGUGGUGGUUGGUAATT against Siat10, the z-score was inactive: -0.452. For GGCUUAUUAUCAGGAAAUGTT against Plcz1, the z-score was inactive: -0.672. In the case of CGGUUUCACGAAUUCCUCCTT against Zfp291, the z-score is reported as inactive: 0.177. In the case of GGUGCUGUGAUAGAUCAGUTT against Zdhhc13, the z-score is reported as inactive: 0.296. In the case of GCCAGACUAAACAAUACCCTT against Cldn19, the z-score is reported as inactive: 0.356. With GGGUGAUGAUGCAUAUAAGTT against Asb5 the z-score was inactive: 0.551. With GGCGUGGAUUCUCAGAUAGTT against Pnn the z-score was inactive: 1.24. In the case of CGAGGAACUUCUGUGGAAATT against Mtus1, the z-score is reported as inactive: 0.857. For GGGUACUCACAGGAAAGUGTT against Olfr411, the z-score was inactive: -0.525. For CCUCUCACUAAAGACUUCCTT against Dlgap2, the z-score was inactive: -0.0891. In the case of GCUUACCAAGUGAACACACTT against Mrpl12, the z-score is reported as inactive: -0.647. In the case of GAGCUACGAGGUACAGUUATT against Ifi202b, the z-score is reported as inactive: -0.885. In the case of GGCAAGGCUACUACUUGCATT against Fgf14, the z-score is reported as inactive: 0.699. For GGAGGUCGUAUUGCGCUAUTT against Lnk, the z-score was inactive: 0.611. In the case of GGUGUUCUGUGGUCAUGAGTT against Haghl, the z-score is reported as inactive: 0.132. For GGUCUUUCCAUUCAUACUUTT against Sec24a, the z-score was inactive: -0.0241. With CCUCUACUACAACUGAUUATT against Lamp3 the z-score was inactive: 0.232. With CCCUCCAAUAUGGUUCACCTT against Optn the z-score was inactive: -0.175. With GCUGAGGCAUAAAAACGAGTT against Atad3a the z-score was inactive: 0.0453. With AGCAUCAUUACUGGAUUCCTT against Olfr859 the z-score was inactive: 0.116. With CCAGCAUGCACUCAGAUUATT against Trib1 the z-score was inactive: 0.24. With GGUGUUAGAAAAGUUGAUUTT against Figf the z-score was inactive: -0.267. In the case of GGGCAGAUGUAAUUCUUGUTT against Ctsm, the z-score is reported as inactive: -0.884. In the case of CCUUCGUAAAACAGAUUGATT against Ikbkap, the z-score is reported as inactive: 0.6. With GGAAAAGCUUUGUAUUACUTT against Gpr124 the z-score was inactive: -0.926. In the case of “GGAUUUAGUUGAAGCCUUCTT against 9030421J09Rik”, the z-score is reported as inactive: -0.343. In the case of GGCUUUCUCCUACAUAUGCTT against Numbl, the z-score is reported as inactive: -0.005. For “GCAGAUGCUAUUUAUGCAGTT against 2610031L17Rik”, the z-score was inactive: -1.34. With GGAAAUAAUGUUACUGACATT against AW610627 the z-score was inactive: -1.42. In the case of GGGUCAAAGAGAAAAAAGUTT against Hoxa13, the z-score is reported as inactive: -0.913. In the case of “GGCUUUACAGAAAUAUCCUTT against 4933417E01Rik”, the z-score is reported as inactive: -0.238. For GGAUCUUAGUAAUAUUGGUTT against Ash2l, the z-score was inactive: -1.75. In the case of CCAGGUCUUAGUAAACAUUTT against Cbln2, the z-score is reported as inactive: -0.0235. With “GGCUGUAAAUAUCUGCCAUTT against 2310005N01Rik” the z-score was inactive: 0.636. With GGACAUUUUCAAACAAGGCTT against Mthfs the z-score was inactive: 0.0323. For “GGCCUAUGGCUUCAUUAGCTT against 0610012C01Rik”, the z-score was inactive: 0.904. With CGAGAAGGGUCAUAUGAGCTT against Rbp4 the z-score was inactive: 1.54. In the case of GGGUUUAUGUAAGUUUCCUTT against Th1l, the z-score is reported as inactive: -0.894. For GGAGACUCCUAAGAAGCAGTT against BC016188, the z-score was inactive: -0.906. With “GGUUCUUCAGGCCACUGAUTT against 1110034A24Rik” the z-score was inactive: 0.416. For GGUGUUACAUAUGAGGAAUTT against Asrij, the z-score was inactive: 0.258. In the case of GACCUGAAGAAGUCAGAUGTT against Sycn, the z-score is reported as inactive: -0.416. In the case of GGGACUGGAAACACACACGTT against Etos1, the z-score is reported as inactive: 0.355. For GCACACUACGGUCCAUCUCTT against AY534250, the z-score was inactive: 0.268. In the case of GGUGCUGGAGAAGAACAUGTT against Map2k3, the z-score is reported as inactive: -1.52. In the case of GCUAACCGAGUUAGUGAGUTT against Lrsam1, the z-score is reported as inactive: -0.889. In the case of GGGAAUGUGGAAGAGUUCCTT against Apg4c, the z-score is reported as inactive: 0.15. In the case of “GCCCUAUCUGCUGAUACCUTT against D430028G21Rik”, the z-score is reported as inactive: -0.191. For “GGAGGUUGUGAUCUUGAAATT against 4930451A13Rik”, the z-score was inactive: -0.069. For GGCUAAGUUCUAUAGUAAATT against Crkl, the z-score was inactive: -0.638. For GGACAAGAGGACUCAGAAATT against Camk1, the z-score was inactive: 0.326. With GCUUCAGAACACGACGACCTT against Sepm the z-score was inactive: 0.877. In the case of GGUGUCUGAUGAUGAAUAUTT against Cnnm3, the z-score is reported as inactive: -2.55. For GGGUCUGGUGAAGAACCUUTT against Akr1e1, the z-score was inactive: 1.08. With “GGUUAACUUCUGUUCCUGATT against 2310034L04Rik” the z-score was inactive: -0.0336. In the case of GCUACUGCCGGAAUUUGGUTT against Tiam1, the z-score is reported as inactive: -0.113. For GGACAAGUUAACCAUUUUGTT against Asz1, the z-score was inactive: 0.806. With GGCUCAAUGAGGGAUAAAATT against Qk the z-score was inactive: -0.303. In the case of GGCCUUGUAACCAACUCCUTT against Sh3bgrl3, the z-score is reported as inactive: 0.0495. In the case of GAAAUAGAGAUGCCUCUCUTT against Olfr1161, the z-score is reported as inactive: -0.926. For CCAGGCAGUAUAAUCAUGUTT against Col4a5, the z-score was inactive: 0.545. For GGGAAGAAAGGAUGGGAAATT against Fev, the z-score was inactive: -2.24. For “GGCAGAAGAACUUUUCCAGTT against 1700028N11Rik”, the z-score was inactive: 0.08. For GGAGAAGCCAAAAGAAUGCTT against Xrn2, the z-score was inactive: 2.28. With GGUGUUCAAUGCUCACUAUTT against Zfp312 the z-score was inactive: 0.356. For CGGGCUGAAGCUCAUUUCUTT against Gpd1, the z-score was inactive: 0.268. With GGCAAUGUAGUGAACAAACTT against Gtpbp1 the z-score was inactive: -1.22. In the case of GGACUUAAUCAACCUAACCTT against Tmem23, the z-score is reported as inactive: -0.143. For CCAGGAUGAAAAGUCGUUUTT against Slco2a1, the z-score was inactive: -0.076. For GGAAAACCUUUGUCAAAAATT against P2ry13, the z-score was inactive: 1.98. For CGUGAACAGCUUUAAGGUGTT against Usp27x, the z-score was inactive: -0.931. With GGCUUUAAUCCUAACCCUATT against AI854635 the z-score was inactive: -0.607. With GGUGAAGUGAGCCUUUGUGTT against Cfhl1 the z-score was inactive: -2.42. With CCGUCCAAAAGGACUUAUCTT against Nap1l2 the z-score was inactive: 0.343. In the case of “GGUUAUGAAUCUUUUCCCATT against 1810044O22Rik”, the z-score is reported as inactive: -0.562. In the case of GCUAAGAGGUUGUAGUUUUTT against Tbpl1, the z-score is reported as inactive: 0.193. In the case of CCACGACAUUCCAGAAAGGTT against Ian6, the z-score is reported as inactive: 0.192. In the case of GGUUUCUGACCUCAAUAGUTT against Cklfsf6, the z-score is reported as inactive: 0.0838. In the case of GCUUCGGUCAAAAGUGAGUTT against Glipr1, the z-score is reported as inactive: -1.09. For GGAGGAGUGUUGAACUAAATT against Ttc14, the z-score was inactive: 0.37. With GGAAGAGGAUAGGCAGGAATT against Gfer the z-score was inactive: -0.273. With GGAAGACUUUGAAGAAAAATT against Olfr983 the z-score was inactive: -0.56. In the case of CCUGUUGAUUAAUUGAAGCTT against E2f2, the z-score is reported as inactive: 1.45. With “CCCUAAAACCAAAUGUACATT against E130014J05Rik” the z-score was active: 6.23. For GGAUACGAUCCAGUGUGCCTT against Lyzl4, the z-score was inactive: 0.308. In the case of GGUUAAGAGCGUACGUUUUTT against BC054438, the z-score is reported as inactive: 0.0663.
